# The supplement of paper PMC7661543
# ± gives the standard deviation of the averaged measurements. The effect of the compound repeats well; differences between the knockouts mostly do not.
# System: BT-20
# Assay: relative cell number vs DMSO control (72 h) (% of DMSO); higher = less growth inhibition (more cells)
# Description: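 QMAP-Seq: a pool of 5 breast cancer cell lines (ZR-75-1, SKBR3, HCC-38, MDA-MB-231, BT-20), each carrying 12 doxycycline-inducible Cas9 sgRNA perturbations (11 knockouts plus non-targeting sgNT), was treated with compounds for 72 h at four 10-fold doses (10 nM-10 uM or 1 nM-1 uM range). Barcodes were amplified and sequenced, and cell number was interpolated from 293T spike-in standard curves. The result is expressed as % of the median of DMSO wells. Two biological replicates.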
# [1] = sgRNA knockout: sgATF3, 1000 nM
# [2] = sgRNA knockout: sgATF3, 10000 nM
# [3] = sgRNA knockout: sgATF4, 1000 nM
# [4] = sgRNA knockout: sgATF4, 10000 nM
# [5] = sgRNA knockout: sgATF6, 1000 nM
# [6] = sgRNA knockout: sgATF6, 10000 nM
# [7] = sgRNA knockout: sgATG7, 1000 nM
# [8] = sgRNA knockout: sgATG7, 10000 nM
# [9] = sgRNA knockout: sgERN1, 1000 nM
# [10] = sgRNA knockout: sgERN1, 10000 nM
# [11] = sgRNA knockout: sgHSF1, 1000 nM
# [12] = sgRNA knockout: sgHSF1, 10000 nM
# [13] = sgRNA knockout: sgHSF2, 1000 nM
# [14] = sgRNA knockout: sgHSF2, 10000 nM
# [15] = sgRNA knockout: sgKEAP1, 100 nM
# [16] = sgRNA knockout: sgKEAP1, 1000 nM
# [17] = sgRNA knockout: sgKEAP1, 10000 nM
# [18] = sgRNA knockout: sgNFE2L2, 10 nM
# [19] = sgRNA knockout: sgNFE2L2, 100 nM
# [20] = sgRNA knockout: sgNFE2L2, 1000 nM
# [21] = sgRNA knockout: sgNFE2L2, 10000 nM
# [22] = sgRNA knockout: sgSLC35F2, 10 nM
# [23] = sgRNA knockout: sgSLC35F2, 100 nM
# [24] = sgRNA knockout: sgSLC35F2, 1000 nM
# [25] = sgRNA knockout: sgSLC35F2, 10000 nM
# [26] = sgRNA knockout: sgXBP1, 1000 nM
# [27] = sgRNA knockout: sgXBP1, 10000 nM
smiles,measurement,setting,value
Cn1c(CCCC(=O)O)nc2cc(N(CCCl)CCCl)ccc21 [Bendamustine],relative cell number,"sgRNA knockout: sgATF3, 10 nM",101 ± 35
same,relative cell number,"sgRNA knockout: sgATF3, 100 nM",99.8 ± 12
same,relative cell number,[1],99 ± 12
same,relative cell number,[2],108 ± 13
same,relative cell number,"sgRNA knockout: sgATF4, 10 nM",104.8 ± 0.33
same,relative cell number,"sgRNA knockout: sgATF4, 100 nM",109 ± 34
same,relative cell number,[3],107 ± 6.8
same,relative cell number,[4],127 ± 20
same,relative cell number,"sgRNA knockout: sgATF6, 10 nM",90.7 ± 4.8
same,relative cell number,"sgRNA knockout: sgATF6, 100 nM",98.7 ± 42
same,relative cell number,[5],94.2 ± 24
same,relative cell number,[6],103 ± 7.9
same,relative cell number,"sgRNA knockout: sgATG7, 10 nM",104 ± 6.7
same,relative cell number,"sgRNA knockout: sgATG7, 100 nM",112 ± 36
same,relative cell number,[7],122 ± 5
same,relative cell number,[8],123 ± 3
same,relative cell number,"sgRNA knockout: sgERN1, 10 nM",91.8 ± 20
same,relative cell number,"sgRNA knockout: sgERN1, 100 nM",106 ± 18
same,relative cell number,[9],92.2 ± 8.8
same,relative cell number,[10],113 ± 2.1
same,relative cell number,"sgRNA knockout: sgHSF1, 10 nM",86.1 ± 2.7
same,relative cell number,"sgRNA knockout: sgHSF1, 100 nM",89.8 ± 6.4
same,relative cell number,[11],92.8 ± 4.7
same,relative cell number,[12],96.3 ± 15
same,relative cell number,"sgRNA knockout: sgHSF2, 10 nM",106 ± 15
same,relative cell number,"sgRNA knockout: sgHSF2, 100 nM",106 ± 22
same,relative cell number,[13],106.1 ± 0.46
same,relative cell number,[14],113 ± 19
same,relative cell number,"sgRNA knockout: sgKEAP1, 10 nM",94.5 ± 16
same,relative cell number,[15],90.3 ± 22
same,relative cell number,[16],101 ± 7.5
same,relative cell number,[17],97.43 ± 0.23
same,relative cell number,[18],107 ± 4.8
same,relative cell number,[19],131 ± 33
same,relative cell number,[20],122 ± 1.6
same,relative cell number,[21],154 ± 18
same,relative cell number,[22],90.9 ± 6.1
same,relative cell number,[23],115 ± 20
same,relative cell number,[24],107 ± 4
same,relative cell number,[25],111 ± 14
same,relative cell number,"sgRNA knockout: sgXBP1, 10 nM",107 ± 2.8
same,relative cell number,"sgRNA knockout: sgXBP1, 100 nM",121 ± 5.8
same,relative cell number,[26],120 ± 0.82
same,relative cell number,[27],116 ± 24
CC1(C)CCC(c2ccc(Cl)cc2)=C(CN2CCN(c3ccc(C(=O)NS(=O)(=O)c4ccc(N[C@H](CCN5CCOCC5)CSc5ccccc5)c(S(=O)(=O)C(F)(F)F)c4)cc3)CC2)C1 [Navitoclax],relative cell number,"sgRNA knockout: sgATF3, 10 nM",109 ± 11
same,relative cell number,"sgRNA knockout: sgATF3, 100 nM",104 ± 9.4
same,relative cell number,[1],91.6 ± 35
same,relative cell number,[2],74.8 ± 1.7
same,relative cell number,"sgRNA knockout: sgATF4, 10 nM",103 ± 37
same,relative cell number,"sgRNA knockout: sgATF4, 100 nM",103 ± 3.4
same,relative cell number,[3],95.4 ± 2
same,relative cell number,[4],61.8 ± 6.5
same,relative cell number,"sgRNA knockout: sgATF6, 10 nM",105 ± 16
same,relative cell number,"sgRNA knockout: sgATF6, 100 nM",91.5 ± 3.7
same,relative cell number,[5],82.8 ± 16
same,relative cell number,[6],80 ± 0.93
same,relative cell number,"sgRNA knockout: sgATG7, 10 nM",109 ± 12
same,relative cell number,"sgRNA knockout: sgATG7, 100 nM",104 ± 17
same,relative cell number,[7],95.8 ± 5.7
same,relative cell number,[8],72.8 ± 7
same,relative cell number,"sgRNA knockout: sgERN1, 10 nM",94.7 ± 11
same,relative cell number,"sgRNA knockout: sgERN1, 100 nM",93.2 ± 9.6
same,relative cell number,[9],98.5 ± 7.2
same,relative cell number,[10],73.386 ± 0.066
same,relative cell number,"sgRNA knockout: sgHSF1, 10 nM",103.9 ± 0.19
same,relative cell number,"sgRNA knockout: sgHSF1, 100 nM",100 ± 15
same,relative cell number,[11],92.2 ± 12
same,relative cell number,[12],74.5 ± 2.2
same,relative cell number,"sgRNA knockout: sgHSF2, 10 nM",104 ± 6.4
same,relative cell number,"sgRNA knockout: sgHSF2, 100 nM",90.7 ± 16
same,relative cell number,[13],95.7 ± 17
same,relative cell number,[14],75.3 ± 5.9
same,relative cell number,"sgRNA knockout: sgKEAP1, 10 nM",89.7 ± 7.3
same,relative cell number,[15],104 ± 5.5
same,relative cell number,[16],88.13 ± 0.15
same,relative cell number,[17],79.8 ± 2.4
same,relative cell number,[18],98.5 ± 14
same,relative cell number,[19],104 ± 5.7
same,relative cell number,[20],85.8 ± 9.2
same,relative cell number,[21],82.9 ± 16
same,relative cell number,[22],97 ± 13
same,relative cell number,[23],96.1 ± 5.7
same,relative cell number,[24],77.1 ± 6.8
same,relative cell number,[25],69.7 ± 2.6
same,relative cell number,"sgRNA knockout: sgXBP1, 10 nM",100 ± 8.4
same,relative cell number,"sgRNA knockout: sgXBP1, 100 nM",108 ± 11
same,relative cell number,[26],94 ± 25
same,relative cell number,[27],82.3 ± 10

# An excerpt from further up, for reference:
smiles,measurement,setting,value
Cn1c(CCCC(=O)O)nc2cc(N(CCCl)CCCl)ccc21 [Bendamustine],relative cell number,[2],108 ± 13
same,relative cell number,"sgRNA knockout: sgATF4, 10 nM",104.8 ± 0.33
same,relative cell number,"sgRNA knockout: sgATF4, 100 nM",109 ± 34
